Results as given in patent publication US20130058935A1 (INSTITUTE FOR CANCER RESEARCH, published 2013).
No constants are given. Whether binding was seen depends on the method and setting. Some entries that bind do so weakly or less than the wild type.

Molecular target: T1, mTEM7R on live cells (target antigen of scFv#4 in live cell binding assays) (mouse) (UniProt Q9DC11)
T1 sequence (looked up): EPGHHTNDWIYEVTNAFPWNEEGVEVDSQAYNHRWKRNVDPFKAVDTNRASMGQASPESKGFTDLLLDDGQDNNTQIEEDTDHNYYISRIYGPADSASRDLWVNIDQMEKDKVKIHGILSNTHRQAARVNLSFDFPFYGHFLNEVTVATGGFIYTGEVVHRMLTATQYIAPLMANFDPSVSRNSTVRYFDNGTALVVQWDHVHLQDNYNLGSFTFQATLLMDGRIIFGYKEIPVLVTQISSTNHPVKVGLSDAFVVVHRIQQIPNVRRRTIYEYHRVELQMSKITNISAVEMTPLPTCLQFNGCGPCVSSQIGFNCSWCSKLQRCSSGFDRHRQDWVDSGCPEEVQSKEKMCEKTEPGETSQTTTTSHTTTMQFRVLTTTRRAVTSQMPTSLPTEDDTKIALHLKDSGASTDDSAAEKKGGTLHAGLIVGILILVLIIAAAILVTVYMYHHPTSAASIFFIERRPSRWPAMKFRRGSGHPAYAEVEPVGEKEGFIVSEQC
Assay: live cell binding assay with radioiodinated scFv

B1: anti-mTEM7R scFv#4 (scFv)
scFv: MAQVQLVESGGGLVQPGGSLRLSCAASGFTFSSYEMNWVRQAPGKGLEWVSYISSSGSTIYYADSVKGRFTISRDNSKNTLYLQMNSLRAEDTAVYYCASGDYMDVWGQGTTVTVSSSASGAELGGGGSGGGGSGGGGSTSDIQLTQSPSSLSASVGDRVTITCQASQDISNYLNWYQQKPGKAPKLLMYDASNLETGVPSRFSGSGSGTDFTFTISSLQPEDFATYYCQQSDNLPYTFGQGTKVDIKRS
notes: Human scFv from a naive phage library, expressed in E. coli TG1 (pUC119mycHis / pSYN2) and purified by Ni-NTA, so it carries a His tag; also called clone 4; anti-TEM7R scFv
binding: binds
